PubChem BioAssay AID504764 | Drosophila RNAi Screening Center, 2011

Test: 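Genome-wide screen for regulators of Notch-driven gene expression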 (primary screen)
System: Drosophila Kc167 cells
Knock-down reagent: long dsRNA against Drosophila genes
Duration: about 5 days (4 days dsRNA, then 24 h after transfection)
Challenge: transfection of constitutively active membrane-tethered Notch lacking the extracellular domain, read 24 h later
Measured: 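Firefly luciferase from an E(spl)m3 reporter with active Notch, plus control-promoter and uninduced reporter wells for normalisation; unnormalised counts, duplicate wells a and b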
Direction: induced reporter light, run 1, well a and induced reporter light, run 1, well b: higher = more light from the Notch target reporter with active Notch; control promoter light, run 1, well a and control promoter light, run 1, well b: higher = more light from the viral control promoter (cell number, transfection, viability); uninduced reporter light, run 1, well a: higher = more light from the Notch target reporter without active Notch
Hit rule: 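Hit if the duplicate-averaged log2 ratio of induced to control-promoter light gives a plate-wise z beyond ±2, or induced to uninduced beyond ±1.8; weak-control or discordant-duplicate wells dropped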
Meaning of the calls: active = modifier hit (raised or lowered Notch signal); inactive = not a hit
The deposit covers about 22,000 reagents; this is a random part of those with a known target gene and a result. In the full data, 403 (1.9%) are marked active. 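Unnormalised raw counts per well; ratio z-scores behind the hit calls and whether each hit raises or lowers signal are not deposited.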 A plus sign joins genes that one reagent is predicted to hit. Not given: the amount of reagent.

Target gene	PubChem SID	induced reporter light, run 1, well a	induced reporter light, run 1, well b	control promoter light, run 1, well a	control promoter light, run 1, well b	uninduced reporter light, run 1, well a	call
Dlish (GeneID 37014)	SID104185808	1.28e5	89475	92260	1.57e5	11160	inactive
CG4712 (GeneID 36469)	SID104186674	1.18e5	1.04e5	1.42e5	1.13e5	9055	inactive
jim (GeneID 43924)	SID104191681	1.47e5	1.09e5	58570	66220	8445	inactive
Bcs1 (GeneID 34360)	SID104182581	97130	1.15e5	64170	85830	15745	inactive
CG6118 (GeneID 41884)	SID104195760	38405	32535	21270	22935	9965	inactive
CG34193 (GeneID 5740572)	SID104185457	1.20e5	1.26e5	2.06e5	1.84e5	10275	inactive
TTLL15 (GeneID 41300)	SID104195335	1.18e5	99300	1.52e5	93685	8165	inactive
Fcp1 (GeneID 37925)	SID104183913	1.78e5	2.59e5	2.10e5	1.95e5	21865	inactive
CG3776 (GeneID 37996)	SID104184209	2.63e5	2.50e5	2.34e5	2.40e5	13725	active
lncRNA:CR32661 (GeneID 3772605)	SID104199586	1.39e5	1.56e5	2.46e5	2.70e5	10280	inactive
srl (GeneID 40562)	SID104192132	42680	30390	41840	38320	2932	inactive
ScpX (GeneID 44183)	SID104183222	2.23e5	1.94e5	2.01e5	2.14e5	15935	inactive
tai (GeneID 34242)	SID104181999	12925	18255	10070	8378	4745	inactive
tai (GeneID 34242)	SID104182465	1.24e5	1.31e5	67120	84965	19710	inactive
CG8563 (GeneID 38826)	SID104190788	1.73e5	1.52e5	1.84e5	1.60e5	8750	inactive
Alp10 (GeneID 38632)	SID104189541	1.89e5	2.21e5	3.20e5	2.30e5	10780	inactive
CG15635 (GeneID 33665)	SID104180262	1.40e5	1.13e5	1.35e5	1.44e5	8380	inactive
sp3 (GeneID 42545)	SID104196146	2.36e5	1.53e5	2.03e5	1.93e5	11585	inactive
CG13293 (GeneID 38695)	SID104189759	2.00e5	1.37e5	1.85e5	1.45e5	7530	inactive
Eato (GeneID 34783)	SID104181683	4.17e5	3.05e5	3.32e5	3.37e5	27115	inactive
Eato (GeneID 34783)	SID104182853	1.56e5	1.80e5	2.01e5	2.24e5	14695	inactive
CG5554 (GeneID 37775)	SID104184305	1.45e5	1.33e5	1.47e5	1.38e5	10520	inactive
shv (GeneID 33220)	SID104180432	84195	83315	87230	47880	7950	inactive
shv (GeneID 33220)	SID104201680						inactive
CG8858 (GeneID 36319)	SID104187082	1.07e5	1.15e5	1.72e5	1.71e5	12065	inactive
Ppat-Dpck (GeneID 38647)	SID104189536	2.79e5	2.52e5	4.67e5	3.92e5	15460	inactive
ppk5 (GeneID 2768987)	SID104191284	2.56e5	2.24e5	2.87e5	2.68e5	20995	inactive
CG10803 (GeneID 31320)	SID104197555	1.87e5	2.06e5	2.25e5	2.47e5	13690	inactive
mthl5 (GeneID 41438)	SID104195947	66840	61495	72280	55040	2665	inactive
Mst57Da (GeneID 47954)	SID104196536	1.08e5	1.09e5	1.90e5	1.54e5	9300	inactive
CG14153 (GeneID 39208)	SID104189947	1.47e5	90430	1.24e5	1.51e5	7700	inactive
Adsl (GeneID 42051)	SID104195292	1.65e5	1.62e5	1.76e5	1.57e5	16680	inactive
RYBP (GeneID 37601)	SID104183909	81155	83815	45115	53490	4310	inactive
CG3309 (GeneID 31450)	SID104198093	1.56e5	1.76e5	2.96e5	3.55e5	11860	inactive
Nepl13 (GeneID 42699)	SID104195424	1.77e5	1.60e5	2.17e5	1.82e5	14515	inactive
ihog (GeneID 33972)	SID104182949	1.83e5	1.83e5	1.90e5	1.89e5	19940	inactive
ps (GeneID 44258)	SID104194941	88520	90650	89045	56915	3725	inactive
ps (GeneID 44258)	SID104194943	1.42e5	1.43e5	1.23e5	97035	8520	inactive
ps (GeneID 44258)	SID104194944	67445	80255	64330	47135	3560	inactive
ps (GeneID 44258)	SID104196180	89855	1.29e5	1.41e5	98735	9255	inactive
CG12682 (GeneID 31415)	SID104197665	1.01e5	1.08e5	2.11e5	1.80e5	7460	inactive
CG6220 (GeneID 36520)	SID104186761	98460	94715	1.31e5	1.28e5	10520	inactive
Cpr49Ae (GeneID 36351)	SID104186993	98135	81450	95785	80965	7040	inactive
Unc-115b + p24-2 + Unc-115a	SID104196294	66400	73960	65115	53515	3488	inactive
CG13031 (GeneID 39867)	SID104189703	1.72e5	1.59e5	2.30e5	2.15e5	8450	inactive
CG10469 (GeneID 38696)	SID104189521	2.04e5	1.85e5	1.93e5	2.28e5	9850	inactive
Su(H) (GeneID 34881)	SID104183237	65830	77240	1.27e5	1.48e5	14930	active
CG14408 (GeneID 32407)	SID104199387	1.48e5	1.33e5	2.16e5	1.82e5	13355	inactive
not (GeneID 40030)	SID104191170	1.04e5	89265	59435	63445	8570	inactive
CG7987 (GeneID 41768)	SID104196149	97760	1.10e5	74450	73965	9300	inactive

8 entries from above, set out differently.
CG8563 (GeneID 38826) [SID104190788]
- induced reporter light, run 1, well a: 1.73e5
- induced reporter light, run 1, well b: 1.52e5
- control promoter light, run 1, well a: 1.84e5
- control promoter light, run 1, well b: 1.60e5
- uninduced reporter light, run 1, well a: 8750
- call: inactive

Alp10 (GeneID 38632) [SID104189541]
- induced reporter light, run 1, well a: 1.89e5
- induced reporter light, run 1, well b: 2.21e5
- control promoter light, run 1, well a: 3.20e5
- control promoter light, run 1, well b: 2.30e5
- uninduced reporter light, run 1, well a: 10780
- call: inactive

CG15635 (GeneID 33665) [SID104180262]
- induced reporter light, run 1, well a: 1.40e5
- induced reporter light, run 1, well b: 1.13e5
- control promoter light, run 1, well a: 1.35e5
- control promoter light, run 1, well b: 1.44e5
- uninduced reporter light, run 1, well a: 8380
- call: inactive

sp3 (GeneID 42545) [SID104196146]
- induced reporter light, run 1, well a: 2.36e5
- induced reporter light, run 1, well b: 1.53e5
- control promoter light, run 1, well a: 2.03e5
- control promoter light, run 1, well b: 1.93e5
- uninduced reporter light, run 1, well a: 11585
- call: inactive

CG13293 (GeneID 38695) [SID104189759]
- induced reporter light, run 1, well a: 2.00e5
- induced reporter light, run 1, well b: 1.37e5
- control promoter light, run 1, well a: 1.85e5
- control promoter light, run 1, well b: 1.45e5
- uninduced reporter light, run 1, well a: 7530
- call: inactive

Eato (GeneID 34783) [SID104181683]
- induced reporter light, run 1, well a: 4.17e5
- induced reporter light, run 1, well b: 3.05e5
- control promoter light, run 1, well a: 3.32e5
- control promoter light, run 1, well b: 3.37e5
- uninduced reporter light, run 1, well a: 27115
- call: inactive

Eato (GeneID 34783) [SID104182853]
- induced reporter light, run 1, well a: 1.56e5
- induced reporter light, run 1, well b: 1.80e5
- control promoter light, run 1, well a: 2.01e5
- control promoter light, run 1, well b: 2.24e5
- uninduced reporter light, run 1, well a: 14695
- call: inactive

CG5554 (GeneID 37775) [SID104184305]
- induced reporter light, run 1, well a: 1.45e5
- induced reporter light, run 1, well b: 1.33e5
- control promoter light, run 1, well a: 1.47e5
- control promoter light, run 1, well b: 1.38e5
- uninduced reporter light, run 1, well a: 10520
- call: inactive
